Experimental findings from patent US20170349669A1 are described below.

Sequences of proteins named here, by UniProt entry; tags and fusion partners are left off. Residues count along the entry.
UniProt O43508, residues 94-249: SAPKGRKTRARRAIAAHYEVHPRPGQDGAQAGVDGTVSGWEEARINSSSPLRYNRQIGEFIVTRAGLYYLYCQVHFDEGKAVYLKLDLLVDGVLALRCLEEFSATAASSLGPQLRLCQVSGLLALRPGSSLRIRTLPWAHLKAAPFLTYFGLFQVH

The experiment has as its target TWEAK (human) (UniProt O43508). The experiment is described as follows: SPR Biacore. On the technique in general: SPR reads the build-up and loss of mass on a sensor chip optically.

No constants are given. Whether binding was seen depends on the method and setting. Some results given as binding are weak or reduced against the parent protein; the word gives no strength.

B1: TweakIL17_102 (bispecific antibody, human IgG4 S228P, kappa)
heavy 1: DIQMTQSPSSVSASVGDRVTITCQASQNIYSNLAWYQQKPGKAPKLLIYTASYLASGVPSRFSGSGSGTDYTLTISSLQPEDFATYYCQTAYYNSRPDTVAFGGGTKVEIKRTVAAPSVFIFPPSDEQLKSGTASVVCLLNNFYPREAKVQWKVDNALQSGNSQESVTEQDSKDSTYSLSSTLTLSKADYEKHKVYACEVTHQGLSSPVTKSFNRGECPPCPPCPAPEFEGGPSVFLFPPKPKDTLMISRTPEVTCVVVDVSQEDPEVQFNWYVDGVEVHNAKTKPREEQFNSTYRVVSVLTVLHQDWLNGKEYKCKVSNKGLPSSIEKTISKAKGQPREPQVYTLPPCQEEMTKNQVSLWCLVKGFYPSDIAVEWESNGQPENNYKTTPPVLDSDGSFFLYSRLTVDKSRWQEGNVFSCSVMHEALHNHYTQKSLSLSL
light 1: QVQLVQSGAEVKKPGSSVKVSCKASGFDFSTYYMSWVRQAPGQGLEWMGTVYVRQGTTYYASWLNGRVTITADESTSTAYMELSSLRSEDTAVYYCARGGYNYDDAFVIWGQGTLVTVSSASTKGPSVFPLAPCSRSTSESTAALGCLVKDYFPEPVTVSWNSGALTSGVHTFPAVLQSSGLYSLSSVVTVPSSSLGTKTYTCNVDHKPSNTKVDKRVESKYG
heavy 2: EVQLVESGGGLVQPGGSLRLSCAASGFSLDSYGVHWVRQATGKGLEWVSVIWSDGTTTYNSALKSRFTISRENAKNSLYLQMNSLRAGDTAVYYCARDTHYRLYYYAMDYWGQGTTVTVSSASTKGPSVFPLAPCSRSTSESTAALGCLVEDYFPEPVTVSWNSGALTSGVHTFPAVLQSSGLYSLSSVVTVPSSSLGTKTYTCNVDHKPSNTKVDERVESKYGPPCPPCPAPEFEGGPSVFLFPPKPKDTLMISRTPEVTCVVVDVSQEDPEVQFNWYVDGVEVHNAKTKPREEQFNSTYRVVSVLTVLHQDWLNGKEYKCKVSNKGLPSSIEKTISKAKGQPREPQVCTLPPSQEEMTKNQVSLSCAVKGFYPSDIAVEWESNGQPENNYKTTPPVLDSDGSFFLVSRLTVDKSRWQEGNVFSCSVMHEALHNHYTQKSLSLSL
light 2: DIVMTQSPLSLPVTPGEPASISCRSSQSLVHSNGDTYFHWYLQKPGQSPQLLIYKVSNRFSGVPDRFSGSGSGTDFTLKISRVEAEDVGVYYCSQTTHAPFTFGQGTKLEIKRTVAAPSVFIFPPSDKKLKSGTASVVCLLNNFYPREAKVQWKVDNALQSGNSQESVTEQDSKDSTYSLSSTLTLSKADYEKHKVYACEVTHQGLSSPVTKSFNRGEC
B1: the binding result is listed as “binds”.

B2: TweakIL17_103 (bispecific antibody, human IgG4 S228P, kappa)
heavy 1: DIQMTQSPSSVSASVGDRVTITCQASQNIYSNLAWYQQKPGKAPKLLIYTASYLASGVPSRFSGSGSGTDYTLTISSLQPEDFATYYCQTAYYNSRPDTVAFGGGTKVEIKRTVAAPSVFIFPPSDEELKSGTASVVCLLNNFYPREAKVQWKVDNALQSGNSQESVTEQDSKDSTYSLSSTLTLSKADYEKHKVYACEVTHQGLSSPVTKSFNRGECPPCPPCPAPEFEGGPSVFLFPPKPKDTLMISRTPEVTCVVVDVSQEDPEVQFNWYVDGVEVHNAKTKPREEQFNSTYRVVSVLTVLHQDWLNGKEYKCKVSNKGLPSSIEKTISKAKGQPREPQVYTLPPCQEEMTKNQVSLWCLVKGFYPSDIAVEWESNGQPENNYKTTPPVLDSDGSFFLYSRLTVDKSRWQEGNVFSCSVMHEALHNHYTQKSLSLSL
light 1: QVQLVQSGAEVKKPGSSVKVSCKASGFDFSTYYMSWVRQAPGQGLEWMGTVYVRQGTTYYASWLNGRVTITADESTSTAYMELSSLRSEDTAVYYCARGGYNYDDAFVIWGQGTLVTVSSASTKGPSVFPLAPCSRSTSESTAALGCLVKDYFPEPVTVSWNSGALTSGVHTFPAVLQSSGLYSLSSVVTVPSSSLGTKTYTCNVDHKPSNTKVDKRVESKYG
heavy 2: EVQLVESGGGLVQPGGSLRLSCAASGFSLDSYGVHWVRQATGKGLEWVSVIWSDGTTTYNSALKSRFTISRENAKNSLYLQMNSLRAGDTAVYYCARDTHYRLYYYAMDYWGQGTTVTVSSASTKGPSVFPLAPCSRSTSESTAALGCLVEDYFPEPVTVSWNSGALTSGVHTFPAVLQSSGLYSLSSVVTVPSSSLGTKTYTCNVDHKPSNTKVDERVESKYGPPCPPCPAPEFEGGPSVFLFPPKPKDTLMISRTPEVTCVVVDVSQEDPEVQFNWYVDGVEVHNAKTKPREEQFNSTYRVVSVLTVLHQDWLNGKEYKCKVSNKGLPSSIEKTISKAKGQPREPQVCTLPPSQEEMTKNQVSLSCAVKGFYPSDIAVEWESNGQPENNYKTTPPVLDSDGSFFLVSRLTVDKSRWQEGNVFSCSVMHEALHNHYTQKSLSLSL
light 2: DIVMTQSPLSLPVTPGEPASISCRSSQSLVHSNGDTYFHWYLQKPGQSPQLLIYKVSNRFSGVPDRFSGSGSGTDFTLKISRVEAEDVGVYYCSQTTHAPFTFGQGTKLEIKRTVAAPSVFIFPPSDKKLKSGTASVVCLLNNFYPREAKVQWKVDNALQSGNSQESVTEQDSKDSTYSLSSTLTLSKADYEKHKVYACEVTHQGLSSPVTKSFNRGEC
B2: the binding result is “binds”.

B3: TweakIL17_0128 (bispecific antibody, human IgG4 S228P, kappa)
heavy 1: DIQMTQSPSSVSASVGDRVTITCQASQNIYSNLAWYQEKPGKAPKLLIYTASYLASGVPSRFSGSGSGTDYTLTISSLQPEDFATYYCQTAYYNSRPDTVAFGGGTKVEIKRTVAAPSVFIFPPSDEELKSGTASVVCLLNNFYPREAKVQWKVDNALQSGNSQESVTEQDSKDSTYSLSSTLTLSKADYEKHKVYACEVTHQGLSSPVTKSFNRGECPPCPPCPAPEFEGGPSVFLFPPKPKDTLMISRTPEVTCVVVDVSQEDPEVQFNWYVDGVEVHNAKTKPREEQFNSTYRVVSVLTVLHQDWLNGKEYKCKVSNKGLPSSIEKTISKAKGQPREPQVYTLPPCQEEMTKNQVSLWCLVKGFYPSDIAVEWESNGQPENNYKTTPPVLDSDGSFFLYSRLTVDKSRWQEGNVFSCSVMHEALHNHYTQKSLSLSL
light 1: QVQLVQSGAEVKKPGSSVKVSCKASGFDFSTYYMSWVRKAPGQGLEWMGTVYVRQGTTYYASWLNGRVTITADESTSTAYMELSSLRSEDTAVYYCARGGYNYDDAFVIWGQGTLVTVSSASTKGPSVFPLAPCSRSTSESTAALGCLVKDYFPEPVTVSWNSGALTSGVHTFPAVLQSSGLYSLSSVVTVPSSSLGTKTYTCNVDHKPSNTKVDKRVESKYG
heavy 2: EVQLVESGGGLVQPGGSLRLSCAASGFSLDSYGVHWVREATGKGLEWVSVIWSDGTTTYNSALKSRFTISRENAKNSLYLQMNSLRAGDTAVYYCARDTHYRLYYYAMDYWGQGTTVTVSSASTKGPSVFPLAPCSRSTSESTAALGCLVEDYFPEPVTVSWNSGALTSGVHTFPAVLQSSGLYSLSSVVTVPSSSLGTKTYTCNVDHKPSNTKVDERVESKYGPPCPPCPAPEFEGGPSVFLFPPKPKDTLMISRTPEVTCVVVDVSQEDPEVQFNWYVDGVEVHNAKTKPREEQFNSTYRVVSVLTVLHQDWLNGKEYKCKVSNKGLPSSIEKTISKAKGQPREPQVCTLPPSQEEMTKNQVSLSCAVKGFYPSDIAVEWESNGQPENNYKTTPPVLDSDGSFFLVSRLTVDKSRWQEGNVFSCSVMHEALHNHYTQKSLSLSL
light 2: DIVMTQSPLSLPVTPGEPASISCRSSQSLVHSNGDTYFHWYLKKPGQSPQLLIYKVSNRFSGVPDRFSGSGSGTDFTLKISRVEAEDVGVYYCSQTTHAPFTFGQGTKLEIKRTVAAPSVFIFPPSDKKLKSGTASVVCLLNNFYPREAKVQWKVDNALQSGNSQESVTEQDSKDSTYSLSSTLTLSKADYEKHKVYACEVTHQGLSSPVTKSFNRGEC
For the molecule B3, the binding entry is “binds”.
